Data on 1 substance can be found in publication PMC5836524.

Protein sequences, listed by entry. Tags and fused reporters are not part of them.
UniProt Q00610: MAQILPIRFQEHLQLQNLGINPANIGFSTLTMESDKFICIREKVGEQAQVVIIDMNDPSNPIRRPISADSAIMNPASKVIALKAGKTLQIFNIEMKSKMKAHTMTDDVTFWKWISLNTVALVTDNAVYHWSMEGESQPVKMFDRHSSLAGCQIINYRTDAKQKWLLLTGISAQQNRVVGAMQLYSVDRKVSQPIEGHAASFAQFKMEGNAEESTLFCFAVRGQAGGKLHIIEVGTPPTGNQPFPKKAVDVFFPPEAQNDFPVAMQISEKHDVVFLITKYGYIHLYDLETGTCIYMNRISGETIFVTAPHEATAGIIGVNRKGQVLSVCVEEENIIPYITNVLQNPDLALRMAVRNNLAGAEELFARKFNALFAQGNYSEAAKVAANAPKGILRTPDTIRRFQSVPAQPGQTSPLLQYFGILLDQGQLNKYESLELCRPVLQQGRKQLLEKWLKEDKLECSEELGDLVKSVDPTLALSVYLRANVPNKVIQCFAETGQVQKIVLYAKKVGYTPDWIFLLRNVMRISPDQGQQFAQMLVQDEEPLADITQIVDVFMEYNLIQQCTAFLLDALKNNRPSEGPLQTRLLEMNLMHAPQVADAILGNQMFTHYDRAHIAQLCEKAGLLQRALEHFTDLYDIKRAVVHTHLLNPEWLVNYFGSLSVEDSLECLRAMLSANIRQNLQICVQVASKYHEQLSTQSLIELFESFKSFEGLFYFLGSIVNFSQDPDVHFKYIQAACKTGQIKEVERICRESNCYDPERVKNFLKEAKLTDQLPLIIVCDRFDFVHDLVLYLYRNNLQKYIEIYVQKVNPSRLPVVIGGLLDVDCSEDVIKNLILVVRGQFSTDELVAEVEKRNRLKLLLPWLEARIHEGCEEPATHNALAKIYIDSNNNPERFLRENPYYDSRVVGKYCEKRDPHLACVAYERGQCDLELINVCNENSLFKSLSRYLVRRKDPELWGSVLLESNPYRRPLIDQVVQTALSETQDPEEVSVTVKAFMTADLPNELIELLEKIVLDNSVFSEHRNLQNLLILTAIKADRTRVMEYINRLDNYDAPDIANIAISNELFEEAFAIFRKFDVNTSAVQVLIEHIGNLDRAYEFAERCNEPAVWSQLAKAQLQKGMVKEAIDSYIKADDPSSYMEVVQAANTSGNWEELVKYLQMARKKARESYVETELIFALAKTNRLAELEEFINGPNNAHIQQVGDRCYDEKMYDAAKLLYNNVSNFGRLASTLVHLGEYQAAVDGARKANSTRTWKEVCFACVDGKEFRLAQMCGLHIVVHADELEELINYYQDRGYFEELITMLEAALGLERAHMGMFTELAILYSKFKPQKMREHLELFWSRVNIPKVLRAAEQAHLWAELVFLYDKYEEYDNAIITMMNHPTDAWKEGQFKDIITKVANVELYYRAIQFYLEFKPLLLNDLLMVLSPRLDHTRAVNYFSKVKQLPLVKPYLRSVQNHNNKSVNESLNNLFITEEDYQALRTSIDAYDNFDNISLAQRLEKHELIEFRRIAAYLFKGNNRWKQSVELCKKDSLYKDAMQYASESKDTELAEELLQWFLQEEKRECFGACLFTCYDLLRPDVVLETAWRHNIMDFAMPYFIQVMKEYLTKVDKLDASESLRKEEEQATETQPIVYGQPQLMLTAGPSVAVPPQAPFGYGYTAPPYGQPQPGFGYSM

These are yes or no findings as the source states them, for the method shown. In cells and extracts the contact can be indirect. Some binding calls cover weakened binding; strength is not graded here. Sequences can lack the tags named with a protein.

The target of the test is T1, EGFP-Eps15R wild type, full-length (aa 1-907) (mouse) (UniProt Q60902).
T1 sequence: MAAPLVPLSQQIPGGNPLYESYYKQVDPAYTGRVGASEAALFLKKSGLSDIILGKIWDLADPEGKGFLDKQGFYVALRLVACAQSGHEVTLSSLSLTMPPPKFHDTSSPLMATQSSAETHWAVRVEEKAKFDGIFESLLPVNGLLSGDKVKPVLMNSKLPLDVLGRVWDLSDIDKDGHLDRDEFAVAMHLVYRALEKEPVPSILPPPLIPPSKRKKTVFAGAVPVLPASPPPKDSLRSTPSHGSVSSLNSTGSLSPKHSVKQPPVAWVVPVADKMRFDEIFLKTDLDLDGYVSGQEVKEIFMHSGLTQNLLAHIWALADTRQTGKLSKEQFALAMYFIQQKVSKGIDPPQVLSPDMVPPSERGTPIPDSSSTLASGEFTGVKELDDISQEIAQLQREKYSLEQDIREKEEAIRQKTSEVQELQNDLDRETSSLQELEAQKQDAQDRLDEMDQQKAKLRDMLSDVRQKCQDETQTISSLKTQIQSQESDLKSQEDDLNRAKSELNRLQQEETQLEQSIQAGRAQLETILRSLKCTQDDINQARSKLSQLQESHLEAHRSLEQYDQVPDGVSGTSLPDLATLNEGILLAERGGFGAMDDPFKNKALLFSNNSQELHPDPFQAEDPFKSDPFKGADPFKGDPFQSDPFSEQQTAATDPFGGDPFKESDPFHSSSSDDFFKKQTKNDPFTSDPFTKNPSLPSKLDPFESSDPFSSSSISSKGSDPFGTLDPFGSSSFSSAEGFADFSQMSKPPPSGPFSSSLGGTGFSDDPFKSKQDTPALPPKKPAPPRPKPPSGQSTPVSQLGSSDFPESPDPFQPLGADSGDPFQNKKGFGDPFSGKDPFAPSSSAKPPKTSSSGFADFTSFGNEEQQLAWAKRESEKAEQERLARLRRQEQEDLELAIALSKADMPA
Kind of test: co-IP; EGFP-tagged Eps15R, its truncations or mutant, EGFP-Eps15 or EGFP immunoprecipitated from HeLa cell extract (20 mM HEPES pH 7.4, 100 mM NaCl, 0.5 mM TCEP, 0.1% NP-40; 4°C); immunoblot for clathrin, AP2 β-adaptin and EGFP. For orientation: In western blotting, separated proteins are transferred to a membrane and probed.

Consider “clathrin (endogenous, detected by blot for clathrin heavy chain) (from UniProt Q00610 1-1675)”, for which the binding entry was “binds”.
